{"sequences": {"note": "Sequences of proteins named here, by UniProt entry; tags and fusion partners are left off. A change or cut given only in a name is not applied to a line headed by its entry. Residues count along the entry.", "UniProt P13596, residues 20-208": "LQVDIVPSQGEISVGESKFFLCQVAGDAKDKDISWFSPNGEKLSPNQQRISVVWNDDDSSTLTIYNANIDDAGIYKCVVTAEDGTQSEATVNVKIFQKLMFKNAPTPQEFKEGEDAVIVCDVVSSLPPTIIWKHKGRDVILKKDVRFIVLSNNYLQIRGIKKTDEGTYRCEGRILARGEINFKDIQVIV"}, "source": "patent US20070116702A1", "about": "“Survival promoting NCAM binding and MCAM ligand binding compounds” (priority 2001, published 2007)", "biological_target": "NCAM(20-208), unmutated double domain Ig1-Ig2 (UniProt P13596)", "test": "gel filtration chromatography, homophilic dimer", "note": "Results are given in words; binding and its absence hold for the method and conditions named. Some entries that bind do so weakly or less than the wild type.", "data": [{"substance": "NCAM(20-208), unmutated double domain Ig1-Ig2 (from UniProt P13596 20-208) (receptor)", "values": [{"measurement": "binding", "value": "binds"}]}]}
